Test results as given in PubChem BioAssay AID588590 (National Center for Advancing Translational Sciences (NCATS), 2011).
Hit rate of the full screen: of about 390,000 compounds, about 4,000 (1%) were called active. The shares of active, inactive and inconclusive entries below differ from those in the screen. Calls come from the whole dose curve; as a rule, active = well fitted inhibition curve with a large enough effect; inconclusive = small, poorly fitted or top-dose-only effect, or another doubt; inactive = no such curve, though single readings can be large or run the other way. A potency beside an inconclusive call is a rough fit, not a confirmed value.

Amino acid sequences for entries named in this document (tags omitted). A change or cut given only in a name is not applied to a line headed by its entry.
UniProt Q9UNA4: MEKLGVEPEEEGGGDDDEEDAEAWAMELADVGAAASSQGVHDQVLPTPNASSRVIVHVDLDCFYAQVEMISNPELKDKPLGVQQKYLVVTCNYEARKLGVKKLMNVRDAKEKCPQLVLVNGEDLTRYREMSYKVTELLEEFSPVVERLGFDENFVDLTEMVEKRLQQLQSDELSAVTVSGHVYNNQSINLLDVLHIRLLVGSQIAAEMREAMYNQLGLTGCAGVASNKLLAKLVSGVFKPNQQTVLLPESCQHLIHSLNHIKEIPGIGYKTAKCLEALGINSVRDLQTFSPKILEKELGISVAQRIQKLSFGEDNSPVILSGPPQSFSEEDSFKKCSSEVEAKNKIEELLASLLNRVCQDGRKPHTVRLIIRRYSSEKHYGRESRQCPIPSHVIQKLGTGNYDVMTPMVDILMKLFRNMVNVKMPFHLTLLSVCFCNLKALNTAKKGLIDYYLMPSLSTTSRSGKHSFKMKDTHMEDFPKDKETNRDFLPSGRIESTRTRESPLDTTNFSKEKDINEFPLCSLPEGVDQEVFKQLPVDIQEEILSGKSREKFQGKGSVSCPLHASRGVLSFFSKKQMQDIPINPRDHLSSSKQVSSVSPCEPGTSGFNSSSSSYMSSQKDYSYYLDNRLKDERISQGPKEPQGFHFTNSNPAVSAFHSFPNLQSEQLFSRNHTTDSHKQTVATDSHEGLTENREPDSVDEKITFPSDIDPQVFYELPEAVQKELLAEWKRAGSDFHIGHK

molecular target: DNA polymerase iota (Homo sapiens) (UniProt Q9UNA4); experiment: qHTS for Inhibitors of Polymerase Iota; settings: Pol iota fluorescent replication assay, 10 min; series mostly up to 115 µM; activity, negative = inhibition: at the top concentration
Outline: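 Fluorescent replication assay read twice, at 0 min and 10 min after adding 50 nM (final) substrate. Enzyme (10 nM) and compounds were first incubated 15 min at room temperature; enzyme-free buffer wells were negative controls.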
Potency is the fitted concentration of half-maximal effect.

Potency, inconclusive:
CCCc1cc(=O)oc2cc(C)cc(OCC(=O)Nc3ccc(CN4CCOCC4)cc3)c12 89.1 µM [inhibitor, partial curve]
COc1ccc(C(=O)Nc2cccc(NC(=O)c3ccc(OC)c(OC)c3)n2)cc1OC 22.4 µM [inhibitor, full curve]
Cc1ccc(-c2noc(CSc3nnc(-c4ccccc4)n3C)n2)cc1 100 µM [inhibitor, partial curve, poor fit]
C=CCn1c(SCc2ccc(C(=O)Nc3ccccc3)cc2)nnc1-c1ccccc1 50.1 µM [inhibitor, partial curve]
CCN(CC)S(=O)(=O)c1ccc(OC)c(NS(=O)(=O)c2ccc(F)cc2)c1 7.08 µM [inhibitor, single point]
COc1ccc(C2=NS(=O)(=O)N(C)C(C(=O)NC3CCCCC3)=C2)cc1 4.47 µM [inhibitor, full curve, poor fit]
CCCC1CC(C)(C(=O)CSc2n[nH]c(-c3ccccc3)n2)OC1=O (centres undefined) 15.8 µM [inhibitor, full curve]
CC(=O)Nc1ccc(S(=O)(=O)NCCSCc2ccco2)cc1 31.6 µM [inhibitor, partial curve]
Cc1ccc(NC(=O)C(C)OC(=O)c2ccc(NC(=O)CC#N)cc2)cc1S(=O)(=O)N1CCOCC1 (centres undefined) 20 µM [inhibitor, partial curve, poor fit]
O=C(Nc1cccc(S(=O)(=O)Nc2ccccc2Cl)c1)c1ccc(N2CCCC2)c([N+](=O)[O-])c1 79.4 µM [inhibitor, partial curve, poor fit]
Cc1ccc2nc(C)c(C(=O)N/N=C/c3cccs3)n2c1 50.1 µM [inhibitor, partial curve, poor fit]
NC(=O)c1nsc(C(=O)N(CCc2ccccc2)C(C(=O)NC2CCCC2)c2ccco2)c1N (centres undefined) 79.4 µM [inhibitor, partial curve, poor fit]
C=CCn1c(SCCC(=O)O)nnc1-c1cccs1 89.1 µM [inhibitor, full curve]
COc1cccc(N(C(=O)c2ccco2)c2nc(-c3sc(NC(=O)c4ccco4)nc3C)cs2)c1 35.5 µM [inhibitor, single point]
COc1ccccc1CNC(=O)CSc1ncc2c(n1)-c1cc(Cl)ccc1N(Cc1ccccc1)S2(=O)=O 89.1 µM [inhibitor, single point]
COc1ccccc1NC(=O)CNC(=O)CC12CC3CC(CC(C3)C1)C2 89.1 µM [inhibitor, single point]
O=C(c1ccc(F)cc1)N1CCCC(C(=O)N2CCc3ccccc3C2)C1 (centres undefined) 63.1 µM [inhibitor, partial curve, poor fit]
COc1ccc(S(=O)(=O)N2CCCC(C(=O)Nc3cccnc3)C2)cc1Cl (centres undefined) 2.82 µM [inhibitor, single point]
COc1ccc(-c2cc(C(F)(F)F)n3ncc(C(=O)O)c3n2)cc1OC 100 µM [inhibitor, single point]
COc1ccc(NC(=O)CN2C(=O)c3ccccc3Sc3ccc(C(=O)N4CCOCC4)cc32)c(OC)c1 50.1 µM [inhibitor, partial curve]
COc1ccc(-c2cc(C(=O)c3c(N)n(C)c(=O)n(C)c3=O)c3ccccc3n2)cc1OC 39.8 µM [inhibitor, partial curve, poor fit]
Cc1ccc2c(c1C)NC(C(=O)O)C1CC=CC21 (centres undefined) 2.82 µM [inhibitor, full curve, poor fit]
CC(=O)c1ccc(S(=O)(=O)NC2CCCCCCC2)cc1 63.1 µM [inhibitor, partial curve, poor fit]
Cc1cccnc1Nc1nc(-c2ccc(O)cc2)cs1 63.1 µM [inhibitor, partial curve, poor fit]
CC(=O)CC1OC(=O)C(Br)=C1NCc1ccccc1 (centres undefined) 15.8 µM [inhibitor, full curve, poor fit]
CCOC(=O)c1c(NS(C)(=O)=O)sc2c1CCC(C)C2 (centres undefined) 39.8 µM [inhibitor, partial curve, poor fit]
COC(=O)c1cccc(NC(=O)CSc2nc(=O)cc(N)n2-c2ccccc2)c1 20 µM [inhibitor, full curve, poor fit]
COc1ccc(OC)c(C2C3=C(N=c4s/c(=C\c5cccc(O)c5)c(=O)n42)c2ccccc2CC3)c1 (centres undefined) 89.1 µM [inhibitor, partial curve, poor fit]
COc1cccc(C(=O)Nc2ccccc2-c2nc3ccccc3s2)c1 89.1 µM [inhibitor, single point]
Nc1ccc2c(c1)ncn2CCCn1cnc2cc(N)ccc21 56.2 µM [inhibitor, partial curve, poor fit]
Cc1ccc(C2=Nc3ccccc3NC(C)(c3ccc(C)o3)C2)o1 (centres undefined) 10 µM [inhibitor, partial curve, poor fit]

activity, negative = inhibition, inactive:
O=[N+]([O-])c1ccccc1S(=O)(=O)N1CCN(c2nc(-c3cccs3)nc3ccccc23)CC1 -6.79%
O=C(CS(=O)(=O)c1cccc2nsnc12)Nc1cc(F)ccc1F 0.334%
CCN(CC(=O)Nc1ccc(NC(C)=O)cc1)C(=O)c1cc(-c2ccccc2Cl)nc2ccccc12 -17.1%
COc1cccc(CNC(=O)COCc2cc(-c3ccc4c(c3)OCO4)on2)c1 7.72%
CN(Cc1ccccc1)S(=O)(=O)c1ccc(Cl)c(C(=O)OCC(N)=O)c1 12.9%
COc1cc(C(=O)OCc2cc(=O)n3nc(C(C)C)sc3n2)cc(OC)c1OC 22.8%
CN(C)S(=O)(=O)c1ccc2c(c1)N(CC(=O)N1CCN(c3ccccc3F)CC1)CCS2 -7.44%
Cn1cnnc1SCC(=O)Nc1nc(-c2ccccc2)cs1 38.2%

A section taken from the entries so far, for reference:
activity, negative = inhibition, inactive:
O=[N+]([O-])c1ccccc1S(=O)(=O)N1CCN(c2nc(-c3cccs3)nc3ccccc23)CC1 -6.79%
O=C(CS(=O)(=O)c1cccc2nsnc12)Nc1cc(F)ccc1F 0.334%
CCN(CC(=O)Nc1ccc(NC(C)=O)cc1)C(=O)c1cc(-c2ccccc2Cl)nc2ccccc12 -17.1%
COc1cccc(CNC(=O)COCc2cc(-c3ccc4c(c3)OCO4)on2)c1 7.72%

Two records picked at random from those above:
activity, negative = inhibition, inactive:
Cn1cnnc1SCC(=O)Nc1nc(-c2ccccc2)cs1 38.2%
COc1cc(C(=O)OCc2cc(=O)n3nc(C(C)C)sc3n2)cc(OC)c1OC 22.8%
